# Library screening results

A: 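Whole-cell assay for inhibitors of Mycobacterium tuberculosis growth, labelled Cornell in the record; the read-out is not stated. The concentration is filed as 10 mM, unlikely as a test dose, so the dose is not known. Higher means stronger inhibition (inferred from two other growth screens of the library). Of about 53,000 compounds tested this way, about 900 (1.7%) reached 50% or more in at least one test.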
B: 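Assay on Mycobacterium tuberculosis, filed only as a heat shock assay from Cornell; the read-out is not stated. The concentration is filed as 10 mM, unlikely as a test dose, so the dose is not known. Higher reads as stronger inhibition (inferred: compounds with an IC50 in retests scored well above the rest). Of about 69,000 compounds tested this way, about 930 (1.4%) reached 50% or more in at least one test.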

Each number is a percent effect as filed.
The controls that fix the scale are not given in the record; negative values are as filed.
The compounds are a random part of those screened.
A dash means the value is not listed here; it may have been measured.

{"smiles": "CN1CC[C@]2(CN(C(=O)c3ccc[nH]3)C[C@H]2c2ccccc2)C1=O", "A": 17, "B": -10.39}
{"smiles": "Cc1c(C(=O)NC(CN2CCCC2=O)c2ccccc2)cnn1C", "stereo": "centres unmarked", "B": -17.15}
{"smiles": "[H][C@]12CC[C@]([H])(CN(c3cnccn3)C1)N(C(=O)c1sc(NC)nc1C)C2", "A": -8.08, "B": -27.74}
{"smiles": "Cn1cc(CCCNS(=O)(=O)N2CCCC2c2ccco2)cn1", "stereo": "centres unmarked", "A": -4.85, "B": 0.2299}
{"smiles": "O=C1C(Sc2nc(=O)ccn2C2CC2)CCN1c1ccccc1", "stereo": "centres unmarked", "B": 2.296}
{"smiles": "Cc1nn(CC(=O)N(C)Cc2nncn2C(C)C)c(=O)c2ccccc12", "A": 30.27, "B": 17.07}
{"smiles": "Cn1cnc2c1CCN(Cc1csc(-c3ccccc3F)n1)C2", "B": 47.56}
{"smiles": "c1ccc2c(c1)CC(CNCc1ccncc1)(N1CCCCC1)C2", "A": 0.8072, "B": 16.81}
{"smiles": "c1cc2occc2c(N2CCCC(c3nncn3C3CC3)C2)n1", "stereo": "centres unmarked", "A": -32.9, "B": -0.337}
{"smiles": "Cc1ccc2nc(C)c(C)c(C(=O)NCCCn3cnnc3)c2c1", "A": 14.22, "B": 5.732}
{"smiles": "Cc1ccc(C)c(S(=O)(=O)CCNC2CCc3ncnn3C2)c1", "stereo": "centres unmarked", "B": -18.79}
{"smiles": "CSC(C)CCN(Cc1ccccn1)Cc1sccc1C", "stereo": "centres unmarked", "A": 52.37, "B": 15.03}
{"smiles": "Cc1c(-c2ccccc2)ncn1CCCNc1cccnc1", "A": 22.73, "B": -22.4}
{"smiles": "Nc1ncc(C(=O)N2CCC(O)(CO)CC2)c(-c2ccccc2)n1", "A": 8.47, "B": 1.318}
{"smiles": "CCC(=O)N1CCC2(C=C(C(=O)N(C)C)c3ccccc32)CC1", "A": -14.01, "B": -7.191}
{"smiles": "COC(=O)C1(NCc2nc(C)c(C)o2)CCC(C)CC1", "stereo": "centres unmarked", "B": -8.705}
{"smiles": "CCOc1ccccc1CNS(=O)(=O)c1ccc2c(c1)CCCC(=O)N2", "A": -4.258, "B": 13.72}
{"smiles": "CN1CC(C(=O)NCc2cccnc2OCc2ccccc2)CC1=O", "stereo": "centres unmarked", "A": -15.54, "B": -1.611}
{"smiles": "N#Cc1cccn(CCOc2ccc(Cl)cc2)c1=O", "A": -24.33, "B": -26.37}

The first 2 entries again:

| SMILES | A | B |
|---|---|---|
| `CN1CC[C@]2(CN(C(=O)c3ccc[nH]3)C[C@H]2c2ccccc2)C1=O` | 17 | -10.39 |
| `Cc1c(C(=O)NC(CN2CCCC2=O)c2ccccc2)cnn1C` (centres unmarked) | - | -17.15 |

From ChEMBL document CHEMBL3988442, “University of Dundee, Small-Polar-MMV Screening Library” (2021).